The target of this test is BD-AtTRM61 (Arabidopsis) (UniProt F4K6U9). The test is described as follows: two-hybrid; pGBKT7 (BD) and pGADT7 (AD) fusions co-transformed into yeast AH109; growth on SD/-Trp-Leu-His-Ade, 3-7 d at 30 °C.

Amino acid sequences for entries named in this document (tags omitted). A change or cut given only in a name is not applied to a line headed by its entry.
UniProt O80846: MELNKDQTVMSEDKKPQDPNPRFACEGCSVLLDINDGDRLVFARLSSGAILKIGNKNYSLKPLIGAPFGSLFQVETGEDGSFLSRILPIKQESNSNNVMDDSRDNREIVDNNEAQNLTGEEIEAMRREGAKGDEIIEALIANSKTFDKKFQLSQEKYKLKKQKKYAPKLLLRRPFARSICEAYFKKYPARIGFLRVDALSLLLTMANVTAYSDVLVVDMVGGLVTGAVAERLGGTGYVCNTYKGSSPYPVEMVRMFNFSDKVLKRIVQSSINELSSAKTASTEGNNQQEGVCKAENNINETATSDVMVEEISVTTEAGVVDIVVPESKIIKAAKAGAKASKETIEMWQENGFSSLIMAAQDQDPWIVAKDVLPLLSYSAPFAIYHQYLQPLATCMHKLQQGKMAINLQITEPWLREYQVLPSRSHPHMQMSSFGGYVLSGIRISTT

No constants are given. Whether binding was seen depends on the method and setting. A result given as binding can be weak or reduced; the word gives no strength.

For AD-AtTRM6 (from UniProt O80846), the binding entry is given as “binds”.

The record behind these values is paper PMC7475180, “The Arabidopsis TRM61/TRM6 complex is a bona fide tRNA N^1-methyladenosine methyltransferase” (Journal of Experimental Botany, 2020).
